Measured values reported in the supplement of paper PMC10849652.
The other results are listed elsewhere or left out.

The chains behind the UniProt entries cited, without tags or fusion partners. Where a name states a change or a piece, a line headed by the entry shows the natural chain unless it says otherwise.
UniProt O75208: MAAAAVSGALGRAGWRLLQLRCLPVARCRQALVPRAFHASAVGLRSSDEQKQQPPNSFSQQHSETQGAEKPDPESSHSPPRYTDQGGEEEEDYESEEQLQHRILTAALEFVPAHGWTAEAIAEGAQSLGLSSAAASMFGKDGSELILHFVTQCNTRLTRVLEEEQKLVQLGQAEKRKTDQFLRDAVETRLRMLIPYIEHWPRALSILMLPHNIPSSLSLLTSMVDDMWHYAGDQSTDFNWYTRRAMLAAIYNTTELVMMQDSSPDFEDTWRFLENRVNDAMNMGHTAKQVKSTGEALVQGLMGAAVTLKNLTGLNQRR
UniProt O75575: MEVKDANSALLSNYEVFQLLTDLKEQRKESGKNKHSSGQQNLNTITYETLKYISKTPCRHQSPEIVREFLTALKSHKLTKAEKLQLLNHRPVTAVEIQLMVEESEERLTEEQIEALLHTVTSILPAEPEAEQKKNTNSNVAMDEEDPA
UniProt P24311, whole entry, looked up: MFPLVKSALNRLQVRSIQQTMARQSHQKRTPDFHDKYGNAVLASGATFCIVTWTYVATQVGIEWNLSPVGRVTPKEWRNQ
UniProt Q9Y678: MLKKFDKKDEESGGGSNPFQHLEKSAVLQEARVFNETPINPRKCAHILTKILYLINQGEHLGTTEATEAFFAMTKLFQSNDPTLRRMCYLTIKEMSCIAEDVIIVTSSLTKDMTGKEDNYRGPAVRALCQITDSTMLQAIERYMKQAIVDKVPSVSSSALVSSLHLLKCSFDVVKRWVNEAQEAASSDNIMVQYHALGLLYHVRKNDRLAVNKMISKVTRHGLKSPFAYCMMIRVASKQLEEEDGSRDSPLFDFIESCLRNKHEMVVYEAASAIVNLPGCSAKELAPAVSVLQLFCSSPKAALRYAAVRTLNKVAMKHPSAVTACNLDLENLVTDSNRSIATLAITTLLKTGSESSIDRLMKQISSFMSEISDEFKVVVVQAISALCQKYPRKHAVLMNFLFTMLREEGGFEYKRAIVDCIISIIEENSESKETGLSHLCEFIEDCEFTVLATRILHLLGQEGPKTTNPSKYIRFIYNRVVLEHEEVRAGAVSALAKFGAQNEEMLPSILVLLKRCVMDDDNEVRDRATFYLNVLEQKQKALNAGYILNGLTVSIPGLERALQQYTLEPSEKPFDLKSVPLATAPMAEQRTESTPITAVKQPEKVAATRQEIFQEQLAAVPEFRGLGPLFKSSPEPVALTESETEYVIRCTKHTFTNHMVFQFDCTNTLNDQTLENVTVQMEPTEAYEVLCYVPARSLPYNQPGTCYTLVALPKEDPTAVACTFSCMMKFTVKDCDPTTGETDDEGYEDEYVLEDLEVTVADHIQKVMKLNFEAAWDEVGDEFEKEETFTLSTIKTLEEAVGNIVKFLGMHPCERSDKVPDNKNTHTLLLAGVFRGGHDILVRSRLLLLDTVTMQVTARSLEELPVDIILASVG
UniProt P61201: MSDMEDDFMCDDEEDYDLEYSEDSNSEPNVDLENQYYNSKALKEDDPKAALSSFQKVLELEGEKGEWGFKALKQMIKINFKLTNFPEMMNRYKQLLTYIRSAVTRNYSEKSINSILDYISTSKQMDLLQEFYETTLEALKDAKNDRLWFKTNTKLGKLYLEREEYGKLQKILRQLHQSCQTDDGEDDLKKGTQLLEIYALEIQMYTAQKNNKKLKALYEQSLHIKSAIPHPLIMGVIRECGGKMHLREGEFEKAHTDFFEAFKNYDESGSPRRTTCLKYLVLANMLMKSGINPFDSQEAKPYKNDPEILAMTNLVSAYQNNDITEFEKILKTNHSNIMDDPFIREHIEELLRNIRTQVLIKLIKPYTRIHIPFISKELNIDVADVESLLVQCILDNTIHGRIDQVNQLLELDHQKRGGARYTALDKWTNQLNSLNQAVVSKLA
UniProt P53621: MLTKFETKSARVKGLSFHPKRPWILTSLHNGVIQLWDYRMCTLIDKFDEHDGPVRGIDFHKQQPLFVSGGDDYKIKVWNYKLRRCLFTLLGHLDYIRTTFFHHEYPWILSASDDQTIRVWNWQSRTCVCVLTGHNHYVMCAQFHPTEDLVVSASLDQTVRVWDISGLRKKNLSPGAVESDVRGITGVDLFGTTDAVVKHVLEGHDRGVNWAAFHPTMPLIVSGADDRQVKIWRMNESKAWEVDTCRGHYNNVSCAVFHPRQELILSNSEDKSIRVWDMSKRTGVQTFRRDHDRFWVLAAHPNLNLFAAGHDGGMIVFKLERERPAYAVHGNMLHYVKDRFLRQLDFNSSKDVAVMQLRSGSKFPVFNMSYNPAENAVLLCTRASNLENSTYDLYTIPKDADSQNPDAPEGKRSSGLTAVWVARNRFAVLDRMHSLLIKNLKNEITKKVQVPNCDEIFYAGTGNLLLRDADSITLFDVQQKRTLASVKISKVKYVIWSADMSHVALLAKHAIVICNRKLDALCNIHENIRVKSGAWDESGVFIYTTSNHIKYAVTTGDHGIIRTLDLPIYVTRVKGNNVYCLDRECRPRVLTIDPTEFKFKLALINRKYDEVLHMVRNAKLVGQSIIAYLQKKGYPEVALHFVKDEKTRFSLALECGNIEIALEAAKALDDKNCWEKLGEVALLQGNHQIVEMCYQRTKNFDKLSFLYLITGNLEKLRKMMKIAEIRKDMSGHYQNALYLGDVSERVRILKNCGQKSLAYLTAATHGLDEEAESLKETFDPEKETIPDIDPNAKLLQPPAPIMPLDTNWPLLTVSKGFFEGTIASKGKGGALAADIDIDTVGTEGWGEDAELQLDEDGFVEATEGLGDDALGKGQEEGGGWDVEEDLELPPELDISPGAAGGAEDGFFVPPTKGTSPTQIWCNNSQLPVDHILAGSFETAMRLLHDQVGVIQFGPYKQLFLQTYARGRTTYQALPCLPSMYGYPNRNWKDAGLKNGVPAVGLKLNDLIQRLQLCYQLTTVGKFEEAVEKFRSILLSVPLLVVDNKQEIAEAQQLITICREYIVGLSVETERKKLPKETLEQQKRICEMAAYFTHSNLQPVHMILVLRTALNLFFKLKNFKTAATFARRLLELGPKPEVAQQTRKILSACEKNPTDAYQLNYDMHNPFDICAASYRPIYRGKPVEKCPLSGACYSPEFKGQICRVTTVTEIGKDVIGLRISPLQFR
UniProt Q96FN4: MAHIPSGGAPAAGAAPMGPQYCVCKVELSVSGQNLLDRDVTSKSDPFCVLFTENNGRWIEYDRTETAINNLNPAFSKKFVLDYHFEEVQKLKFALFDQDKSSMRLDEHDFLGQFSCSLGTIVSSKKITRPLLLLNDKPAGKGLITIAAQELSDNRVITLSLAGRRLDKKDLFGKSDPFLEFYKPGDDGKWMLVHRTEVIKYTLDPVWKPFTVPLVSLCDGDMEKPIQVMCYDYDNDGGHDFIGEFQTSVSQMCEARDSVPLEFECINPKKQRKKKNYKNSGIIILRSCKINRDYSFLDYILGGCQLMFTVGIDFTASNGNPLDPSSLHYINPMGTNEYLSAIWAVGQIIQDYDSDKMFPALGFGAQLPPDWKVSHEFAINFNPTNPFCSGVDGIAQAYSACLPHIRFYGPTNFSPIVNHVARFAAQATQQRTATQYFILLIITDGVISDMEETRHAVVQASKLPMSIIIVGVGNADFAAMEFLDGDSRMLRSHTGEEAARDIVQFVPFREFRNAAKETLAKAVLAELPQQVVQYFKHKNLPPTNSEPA
UniProt Q7L5N1: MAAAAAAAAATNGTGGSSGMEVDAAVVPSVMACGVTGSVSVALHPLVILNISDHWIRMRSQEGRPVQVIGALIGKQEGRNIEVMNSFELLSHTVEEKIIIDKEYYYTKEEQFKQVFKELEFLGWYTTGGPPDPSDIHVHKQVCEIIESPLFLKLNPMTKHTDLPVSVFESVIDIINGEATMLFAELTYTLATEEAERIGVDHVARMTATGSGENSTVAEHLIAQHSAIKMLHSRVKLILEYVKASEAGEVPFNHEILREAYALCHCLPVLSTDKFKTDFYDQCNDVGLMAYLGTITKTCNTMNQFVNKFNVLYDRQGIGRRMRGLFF
UniProt P02511: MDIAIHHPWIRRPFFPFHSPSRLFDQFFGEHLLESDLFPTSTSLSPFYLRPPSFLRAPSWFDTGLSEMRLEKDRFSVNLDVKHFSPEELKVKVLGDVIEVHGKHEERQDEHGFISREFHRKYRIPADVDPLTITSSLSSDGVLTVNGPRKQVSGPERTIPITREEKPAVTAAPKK
UniProt O75534: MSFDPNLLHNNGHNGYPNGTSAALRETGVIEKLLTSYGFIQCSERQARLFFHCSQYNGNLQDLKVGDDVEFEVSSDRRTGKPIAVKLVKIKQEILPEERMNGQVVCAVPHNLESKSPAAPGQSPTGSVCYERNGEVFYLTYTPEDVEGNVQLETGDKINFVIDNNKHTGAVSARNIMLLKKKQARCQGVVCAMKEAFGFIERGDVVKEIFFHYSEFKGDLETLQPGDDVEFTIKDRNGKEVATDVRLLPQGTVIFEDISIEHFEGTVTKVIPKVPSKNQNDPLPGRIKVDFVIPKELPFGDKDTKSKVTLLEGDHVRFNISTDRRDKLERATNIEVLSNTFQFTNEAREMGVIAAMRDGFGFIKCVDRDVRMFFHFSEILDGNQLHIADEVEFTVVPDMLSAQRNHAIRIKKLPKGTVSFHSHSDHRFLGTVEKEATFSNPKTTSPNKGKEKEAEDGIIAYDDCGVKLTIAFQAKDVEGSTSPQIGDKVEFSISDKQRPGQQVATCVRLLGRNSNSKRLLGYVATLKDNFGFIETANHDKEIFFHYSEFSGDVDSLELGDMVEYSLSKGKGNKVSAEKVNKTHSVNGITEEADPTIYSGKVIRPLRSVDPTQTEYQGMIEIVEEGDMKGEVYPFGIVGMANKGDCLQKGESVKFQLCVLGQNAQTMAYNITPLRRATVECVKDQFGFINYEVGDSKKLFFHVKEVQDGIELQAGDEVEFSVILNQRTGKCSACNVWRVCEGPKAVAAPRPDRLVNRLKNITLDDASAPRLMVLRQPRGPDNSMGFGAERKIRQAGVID
UniProt P13073, whole entry, looked up: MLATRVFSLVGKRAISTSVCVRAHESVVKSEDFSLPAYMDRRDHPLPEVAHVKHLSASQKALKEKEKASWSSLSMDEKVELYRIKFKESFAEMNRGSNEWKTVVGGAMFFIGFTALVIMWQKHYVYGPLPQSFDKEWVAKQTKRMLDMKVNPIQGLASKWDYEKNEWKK
UniProt O75976: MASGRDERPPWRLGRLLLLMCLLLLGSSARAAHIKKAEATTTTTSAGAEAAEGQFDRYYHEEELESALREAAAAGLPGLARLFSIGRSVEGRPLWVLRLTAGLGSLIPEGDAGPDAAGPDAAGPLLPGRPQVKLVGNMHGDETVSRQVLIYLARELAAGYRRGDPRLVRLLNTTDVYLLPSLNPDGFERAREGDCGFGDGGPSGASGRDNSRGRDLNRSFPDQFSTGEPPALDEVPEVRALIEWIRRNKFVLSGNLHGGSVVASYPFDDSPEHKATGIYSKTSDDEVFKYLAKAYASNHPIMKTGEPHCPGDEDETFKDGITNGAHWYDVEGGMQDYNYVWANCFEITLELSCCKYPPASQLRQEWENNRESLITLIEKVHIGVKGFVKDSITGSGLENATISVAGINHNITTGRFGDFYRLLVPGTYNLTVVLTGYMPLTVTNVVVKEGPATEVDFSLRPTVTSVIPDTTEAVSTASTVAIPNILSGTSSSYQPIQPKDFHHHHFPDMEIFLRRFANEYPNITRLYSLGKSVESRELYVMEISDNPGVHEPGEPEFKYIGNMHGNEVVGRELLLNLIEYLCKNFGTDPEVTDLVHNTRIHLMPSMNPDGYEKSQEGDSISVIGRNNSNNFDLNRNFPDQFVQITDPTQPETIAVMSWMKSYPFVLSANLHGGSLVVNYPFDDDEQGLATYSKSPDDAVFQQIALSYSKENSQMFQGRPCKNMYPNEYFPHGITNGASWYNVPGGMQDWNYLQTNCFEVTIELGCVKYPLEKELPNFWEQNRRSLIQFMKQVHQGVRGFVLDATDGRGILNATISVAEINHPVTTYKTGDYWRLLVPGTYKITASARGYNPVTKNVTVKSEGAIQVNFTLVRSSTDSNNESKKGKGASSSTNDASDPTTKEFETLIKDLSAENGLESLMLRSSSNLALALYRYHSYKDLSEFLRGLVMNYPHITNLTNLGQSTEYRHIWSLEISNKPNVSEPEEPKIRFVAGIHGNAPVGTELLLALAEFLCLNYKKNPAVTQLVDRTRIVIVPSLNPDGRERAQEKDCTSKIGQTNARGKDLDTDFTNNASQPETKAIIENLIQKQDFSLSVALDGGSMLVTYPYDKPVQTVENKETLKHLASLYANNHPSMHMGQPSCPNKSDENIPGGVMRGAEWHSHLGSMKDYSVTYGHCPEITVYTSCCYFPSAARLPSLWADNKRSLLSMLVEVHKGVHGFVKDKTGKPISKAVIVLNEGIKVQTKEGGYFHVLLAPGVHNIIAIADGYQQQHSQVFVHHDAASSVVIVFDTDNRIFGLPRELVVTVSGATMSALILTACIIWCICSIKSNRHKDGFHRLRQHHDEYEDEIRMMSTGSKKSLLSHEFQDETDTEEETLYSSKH

What was measured:
Assay in all cases: log2 fold change, soluble protein after heating vs DMSO (PISA); higher = thermal stabilisation; K562 cells, 10 uM, 30 min; active = over 0.2 and 3.5 SD of the protein, either way, in both replicates (recomputed)
saracatinib = compound: CN1CCN(CCOc2cc(OC3CCOCC3)c3c(Nc4c(Cl)ccc5c4OCO5)ncnc3c2)CC1 [saracatinib]
Outline: (§1)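 K562 cells at 2×10^6 cells/mL were treated with 10 μM compound for 30 min. Aliquots were heated for 3 min across 48°C-58°C, pooled, and extracted in PBS with 0.5% NP-40 at 4°C; soluble protein was the supernatant after 21,000xg for 90 min. Soluble protein was quantified by TMTpro 16plex LC-MS/MS with channel sums equalised, and reported as log2 fold change in thermal stability against DMSO controls, with values from duplicates.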

sotrastaurin = compound: CN1CCN(c2nc(C3=C(c4c[nH]c5ccccc45)C(=O)NC3=O)c3ccccc3n2)CC1 [sotrastaurin]
Outline: as §1

Tubastatin A = compound: CN1CCc2c(c3ccccc3n2Cc2ccc(C(=O)NO)cc2)C1 [Tubastatin A]
Outline: as §1

[1] = compound: CNC(=O)C1=CC=CC=C1NC2=NC(=NC=C2Cl)NC3=C(C=C(C=C3)N4CCOCC4)OC
Outline: as §1

defactinib = compound: CNC(=O)c1ccc(Nc2ncc(C(F)(F)F)c(NCc3nccnc3N(C)S(C)(=O)=O)n2)cc1 [defactinib]
Outline: as §1

rucaparib = compound: CNCc1ccc(-c2[nH]c3cc(F)cc4c3c2CCNC4=O)cc1 [rucaparib]
Outline: as §1

[2] = compound: CNc1nc(-c2ccc3c(N)n[nH]c3c2)cc(N2C[C@@H](C(=O)NC3CCCCC3)CC[C@H]2C)n1
Outline: as §1

encorafenib = compound: COC(=O)N[C@@H](C)CNc1nccc(-c2cn(C(C)C)nc2-c2cc(Cl)cc(NS(C)(=O)=O)c2F)n1 [encorafenib]
Outline: as §1

[3] = compound: COC(=O)[C@H](CCSC)NC(=O)C1=C(C=C(C=C1)NC[C@H](CS)N)C2=CC=CC=C2
Outline: as §1

[4] = compound: COC1=CC=C(C=C1)CN2C=CC3=C2C=C(C=C3)C(=O)NO
Outline: as §1

filanesib = compound: CON(C)C(=O)N1N=C(c2cc(F)ccc2F)S[C@@]1(CCCN)c1ccccc1 [filanesib]
Outline: as §1

zotarolimus = compound: CO[C@H]1C[C@@H]2CC[C@@H](C)[C@@](O)(O2)C(=O)C(=O)N2CCCC[C@H]2C(=O)O[C@H]([C@H](C)C[C@@H]2CC[C@H](n3cnnn3)[C@H](OC)C2)CC(=O)[C@H](C)/C=C(\C)[C@@H](O)[C@@H](OC)C(=O)[C@H](C)C[C@H](C)/C=C/C=C/C=C/1C [zotarolimus]
Outline: as §1

idasanutlin = compound: COc1cc(C(=O)O)ccc1NC(=O)[C@@H]1N[C@@H](CC(C)(C)C)[C@](C#N)(c2ccc(Cl)cc2F)[C@H]1c1cccc(Cl)c1F [idasanutlin]
Outline: as §1

alisertib = compound: COc1cc(Nc2ncc3c(n2)-c2ccc(Cl)cc2C(c2c(F)cccc2OC)=NC3)ccc1C(=O)O [alisertib]
Outline: as §1

[5] = compound: COc1cc2nc(-c3cc(F)ccc3O)nc(N[C@@H]3CNC[C@H]3C(C)(C)O)c2cc1OC
Outline: as §1

gefitinib = compound: COc1cc2ncnc(Nc3ccc(F)c(Cl)c3)c2cc1OCCCN1CCOCC1 [gefitinib]
Outline: as §1

[6] = compound: COc1cccc2cc(-c3nc([C@H]4CC[C@H](C(=O)O)CC4)n4ncnc(N)c34)[nH]c12
Outline: as §1

lapatinib = compound: CS(=O)(=O)CCNCc1ccc(-c2ccc3ncnc(Nc4ccc(OCc5cccc(F)c5)c(Cl)c4)c3c2)o1 [lapatinib]
Outline: as §1

pictilisib = compound: CS(=O)(=O)N1CCN(Cc2cc3nc(-c4cccc5[nH]ncc45)nc(N4CCOCC4)c3s2)CC1 [pictilisib]
Outline: as §1

alvocidib = compound: CN1CC[C@H](c2c(O)cc(O)c3c(=O)cc(-c4ccccc4Cl)oc23)[C@H](O)C1 [alvocidib]
Outline: as §1

Measured: log2 fold change

COQ9 (UniProt O75208)
inactive: saracatinib -0.009 | sotrastaurin -0.052 | Tubastatin A -0.045 | [1] -0.047 | defactinib -0.045 | rucaparib 0.001 | [2] 0.042 | encorafenib -0.013 | [3] -0.016 | [4] 0.02 | filanesib -0.113 | zotarolimus -0.017 | idasanutlin 0.166 | alisertib -0.038 | [5] -0.013 | gefitinib 0.025 | [6] 0.045 | lapatinib 0.043 | pictilisib -0.041

CRCP (UniProt O75575)
inactive: saracatinib 0.015 | sotrastaurin -0.001 | alvocidib 0.007 | Tubastatin A 0.165 | rucaparib -0.055 | [2] -0.1 | encorafenib -0.04 | [4] 0.031 | filanesib 0.036 | zotarolimus 0.054 | alisertib -0.189 | [5] -0.039 | gefitinib 0 | [6] 0.068 | lapatinib 0.038 | pictilisib 0.009

COPS4 (UniProt Q9BT78)
inactive: saracatinib 0.028 | sotrastaurin 0.008 | Tubastatin A -0.011 | [1] -0.005 | defactinib -0.015 | rucaparib 0.004 | [2] -0.006 | encorafenib -0.001 | [3] -0.007 | filanesib -0.067 | zotarolimus 0.032 | idasanutlin -0.039 | alisertib -0.054 | [5] -0.035 | gefitinib -0.007 | [6] 0.019 | lapatinib 0.025 | pictilisib -0.011
active: [4] 0.219

COX7B (UniProt P24311)
inactive: saracatinib 0.174 | sotrastaurin 0.058 | Tubastatin A -0.087 | [1] 0.059 | defactinib 0 | rucaparib -0.02 | [2] -0.049 | encorafenib -0.036 | [3] -0.073 | [4] 0.112 | filanesib 0.028 | zotarolimus -0.003 | idasanutlin -0.012 | alisertib 0.038 | [5] -0.018 | gefitinib 0.023 | [6] 0.094 | lapatinib -0.009 | pictilisib -0.039

COPG1 (UniProt Q9Y678)
inactive: saracatinib 0.011 | sotrastaurin -0.026 | alvocidib -0.034 | Tubastatin A -0.031 | [1] 0.029 | defactinib -0.017 | rucaparib -0.012 | [2] 0.019 | encorafenib 0.049 | [3] -0.013 | [4] 0.076 | filanesib 0 | zotarolimus 0.015 | idasanutlin -0.035 | alisertib -0.039 | [5] 0.067 | gefitinib 0.031 | [6] -0.016 | lapatinib -0.006 | pictilisib -0.018

COPS2 (UniProt P61201)
inactive: saracatinib 0.052 | sotrastaurin -0.003 | alvocidib -0.071 | Tubastatin A 0.004 | [1] 0.015 | defactinib -0.027 | rucaparib 0.008 | [2] 0.023 | encorafenib 0.007 | [3] -0.006 | [4] 0.009 | filanesib -0.07 | zotarolimus -0.009 | idasanutlin -0.034 | alisertib -0.058 | [5] -0.051 | gefitinib -0.005 | [6] 0.013 | lapatinib 0.022 | pictilisib 0.035

COPA isoform 2 (UniProt P53621)
inactive: saracatinib 0 | sotrastaurin -0.007 | alvocidib -0.032 | Tubastatin A -0.016 | [1] 0.025 | defactinib -0.026 | rucaparib 0.022 | [2] 0.002 | encorafenib 0.038 | [3] -0.004 | [4] 0.004 | filanesib 0.017 | zotarolimus 0.036 | idasanutlin -0.038 | alisertib -0.084 | [5] 0.092 | gefitinib 0.036 | [6] -0.011 | lapatinib 0.018 | pictilisib 0.015

CPNE2 (UniProt Q96FN4)
inactive: saracatinib 0.046 | sotrastaurin 0.031 | alvocidib 0.039 | Tubastatin A -0.009 | [1] 0.165 | defactinib 0.008 | rucaparib -0.154 | [2] -0.06 | encorafenib 0.065 | [3] -0.058 | [4] -0.075 | filanesib -0.221 | zotarolimus -0.237 | idasanutlin -0.08 | alisertib 0.163 | [5] 0.086 | gefitinib 0.029 | [6] -0.215 | lapatinib 0.028 | pictilisib -0.057

COQ10B (UniProt Q9H8M1)
inactive: saracatinib 0.049 | sotrastaurin 0.2 | alvocidib 0.284 | rucaparib -0.204 | [2] -0.212 | encorafenib -0.137 | [4] -0.335 | filanesib 0.221 | zotarolimus -0.097

COPS6 (UniProt Q7L5N1)
inactive: saracatinib 0.071 | sotrastaurin -0.052 | alvocidib -0.053 | Tubastatin A -0.04 | [1] 0.001 | defactinib -0.045 | rucaparib -0.014 | [2] -0.001 | encorafenib 0.02 | [3] 0.004 | [4] 0.057 | filanesib -0.122 | zotarolimus 0.024 | idasanutlin -0.039 | alisertib -0.022 | [5] -0.03 | gefitinib -0.003 | [6] 0.016 | lapatinib -0.094 | pictilisib -0.011

CRTAP (UniProt O75718)
inactive: saracatinib -0.058 | sotrastaurin 0.008 | alvocidib 0.08 | Tubastatin A 0.029 | [1] 0.02 | defactinib 0.094 | rucaparib 0.071 | [2] -0.011 | encorafenib 0.087 | [3] -0.076 | [4] -0.029 | filanesib 0.066 | zotarolimus 0.059 | idasanutlin 0.074 | alisertib -0.152 | [5] -0.018 | gefitinib -0.001 | [6] -0.127 | lapatinib 0.149 | pictilisib -0.035

Two records picked at random from the list so far, as already listed:
CPNE2 (UniProt Q96FN4)
inactive: saracatinib 0.046 | sotrastaurin 0.031 | alvocidib 0.039 | Tubastatin A -0.009 | [1] 0.165 | defactinib 0.008 | rucaparib -0.154 | [2] -0.06 | encorafenib 0.065 | [3] -0.058 | [4] -0.075 | filanesib -0.221 | zotarolimus -0.237 | idasanutlin -0.08 | alisertib 0.163 | [5] 0.086 | gefitinib 0.029 | [6] -0.215 | lapatinib 0.028 | pictilisib -0.057

COPS6 (UniProt Q7L5N1)
inactive: saracatinib 0.071 | sotrastaurin -0.052 | alvocidib -0.053 | Tubastatin A -0.04 | [1] 0.001 | defactinib -0.045 | rucaparib -0.014 | [2] -0.001 | encorafenib 0.02 | [3] 0.004 | [4] 0.057 | filanesib -0.122 | zotarolimus 0.024 | idasanutlin -0.039 | alisertib -0.022 | [5] -0.03 | gefitinib -0.003 | [6] 0.016 | lapatinib -0.094 | pictilisib -0.011

Remaining list, next part

CRYAB (UniProt P02511)
inactive: saracatinib -0.091 | sotrastaurin 0.036 | alvocidib 0.142 | defactinib -0.092 | rucaparib 0.072 | [2] 0 | encorafenib -0.049 | [3] -0.085 | [4] -0.129 | filanesib 0.39 | zotarolimus -0.186 | idasanutlin 0.176

CPVL (UniProt Q9H3G5)
inactive: saracatinib -0.059 | sotrastaurin 0.078 | alvocidib 0.114 | Tubastatin A -0.079 | [1] -0.059 | defactinib 0.023 | rucaparib -0.284 | [2] -0.058 | encorafenib -0.047 | [3] 0.045 | [4] -0.103 | filanesib -0.012 | zotarolimus -0.121 | idasanutlin -0.003 | alisertib 0.026 | [5] -0.041 | gefitinib 0.043 | [6] 0.035 | lapatinib -0.079 | pictilisib 0.12

CSDE1 isoform 4 (UniProt O75534)
inactive: saracatinib -0.101 | sotrastaurin -0.262 | alvocidib 0.13 | Tubastatin A 0.097 | [1] 0.004 | defactinib 0.052 | rucaparib 0.406 | [2] 0.117 | encorafenib 0.214 | [3] -0.078 | [4] 0.031 | filanesib 0.206 | zotarolimus 0.077 | idasanutlin 0.152 | alisertib -0.008 | [5] -0.056 | gefitinib 0.03 | [6] -0.284 | lapatinib 0.045 | pictilisib -0.022

CORO7 isoform 3 (UniProt P57737)
inactive: saracatinib 0.011 | sotrastaurin -0.05 | alvocidib 0.019 | Tubastatin A -0.014 | [1] 0.001 | defactinib -0.025 | rucaparib -0.014 | [2] -0.011 | encorafenib 0.042 | [3] 0.008 | [4] 0.024 | filanesib -0.196 | zotarolimus 0.018 | idasanutlin 0.037 | alisertib -0.024 | [5] -0.203 | gefitinib 0.007 | [6] 0.009 | lapatinib 0.018 | pictilisib 0.005

COX4I1 (UniProt P13073)
inactive: saracatinib 0.053 | sotrastaurin 0.024 | alvocidib 0.017 | Tubastatin A 0.002 | [1] -0.025 | defactinib 0.001 | rucaparib -0.075 | [2] -0.017 | encorafenib -0.009 | [3] 0.033 | [4] -0.017 | filanesib -0.024 | zotarolimus -0.004 | idasanutlin -0.007 | alisertib -0.024 | [5] 0.008 | gefitinib -0.008 | [6] 0.073 | lapatinib -0.012 | pictilisib 0.006

CPD (UniProt O75976)
inactive: saracatinib -0.047 | sotrastaurin -0.011 | Tubastatin A 0.03 | [1] -0.002 | defactinib -0.026 | rucaparib 0.017 | [2] -0.006 | encorafenib 0.042 | [3] 0.012 | [4] 0.022 | filanesib 0.082 | zotarolimus -0.045 | idasanutlin -0.005 | alisertib -0.038 | [5] 0.046 | gefitinib 0.007 | [6] 0.015 | lapatinib -0.01 | pictilisib 0.034
